PubChem BioAssay AID1259308 | NCATS – 2017
The deposit covers about 59,000 reagents; this is a part drawn at random. Of all reagents, about 1,510 (2.6%) are marked active. 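Calls use total luciferase alone and ignore viability, so some active siRNAs may act by altering cell number.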 The numbers tell different reagents against one gene apart. Not all columns of the deposit are shown.

- Assay: 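Candidate targets for better recombinant protein yield in mammalian cells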 (primary screen)
- Cells: human HEK293 embryonic kidney cells stably expressing firefly luciferase (HEK-CMV-Luc2-Hygro)
- Reagent: single siRNA against human genes, 0.8 pmol siRNA per well
- Time to read-out: 72 h
- Detection: 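Reporter luminescence and viable-cell signal on separate replicate plates, given as percent of non-targeting control and median/MAD z-scores, plus per-cell luciferase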
- Direction: total luciferase, z-score and total luciferase, % of control: higher = more reporter protein produced
- Rule for the call: 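An siRNA counts as active if its total luciferase robust z-score exceeds 3; genes with two or more such siRNAs out of three were retested with fresh siRNAs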
- Meaning of the calls: active = raised luciferase; inactive = no rise

OR10W1 (olfactory receptor family 10 subfamily W member 1) #1 showed total luciferase, z-score -0.0671; total luciferase, % of control 80.6; inactive. For OR10W1 (olfactory receptor family 10 subfamily W member 1) #2, the entry reads total luciferase, z-score -0.765; total luciferase, % of control 66.7; inactive. Against OR10W1 (olfactory receptor family 10 subfamily W member 1) #3 the deposit lists total luciferase, z-score -1.29; total luciferase, % of control 56.3; inactive. Silencing of CPXCR1 (CPX chromosome region candidate 1) #1 resulted in: total luciferase, z-score -0.862; total luciferase, % of control 64.7; inactive. Knock-down of CPXCR1 (CPX chromosome region candidate 1) #2 resulted in: total luciferase, z-score -0.674; total luciferase, % of control 68.5; inactive. After knock-down of CPXCR1 (CPX chromosome region candidate 1) #3 the results were total luciferase, z-score -1.06; total luciferase, % of control 60.7; inactive.

After knock-down of CPPED1 (calcineurin like phosphoesterase domain containing 1) #1, the record shows total luciferase, z-score -0.0989; total luciferase, % of control 79.9; inactive. After knock-down of CPPED1 (calcineurin like phosphoesterase domain containing 1) #2 the results were total luciferase, z-score -0.928; total luciferase, % of control 63.4; inactive. Against CPPED1 (calcineurin like phosphoesterase domain containing 1) #3, the entry reads total luciferase, z-score 0.62; total luciferase, % of control 94.2; inactive. For ARHGAP21 (Rho GTPase activating protein 21) #1, the values are total luciferase, z-score -0.0152; total luciferase, % of control 81.6; inactive. With knock-down of ARHGAP21 (Rho GTPase activating protein 21) #2, the record shows total luciferase, z-score -0.0774; total luciferase, % of control 80.3; inactive. ARHGAP21 (Rho GTPase activating protein 21) #3 showed total luciferase, z-score 1.4; total luciferase, % of control 110; inactive.

Silencing of CALB2 (calbindin 2) #1 gave: total luciferase, z-score 0.151; total luciferase, % of control 84.9; inactive. For CALB2 (calbindin 2) #2, the values are total luciferase, z-score -0.497; total luciferase, % of control 72; inactive. After knock-down of CALB2 (calbindin 2) #3, the screen gave total luciferase, z-score 3.61; total luciferase, % of control 154; active. With knock-down of ADAMTS7 (ADAM metallopeptidase with thrombospondin type 1 motif 7) #1 the results were total luciferase, z-score 0.522; total luciferase, % of control 92.3; inactive. Knock-down of ADAMTS7 (ADAM metallopeptidase with thrombospondin type 1 motif 7) #2 came out at: total luciferase, z-score -0.0295; total luciferase, % of control 81.3; inactive. After knock-down of ADAMTS7 (ADAM metallopeptidase with thrombospondin type 1 motif 7) #3 the results were total luciferase, z-score -0.686; total luciferase, % of control 68.2; inactive.

After knock-down of SLC32A1 #1, the record shows total luciferase, z-score 0.152; total luciferase, % of control 84.9; inactive. Depletion of SLC32A1 #2 came out at: total luciferase, z-score -2.32; total luciferase, % of control 35.8; inactive. SLC32A1 #3 scored total luciferase, z-score -0.334; total luciferase, % of control 75.2; inactive. Depletion of ARV1 (ARV1 fatty acid homeostasis modulator) #1 gave: total luciferase, z-score -0.0546; total luciferase, % of control 80.8; inactive. For ARV1 (ARV1 fatty acid homeostasis modulator) #2 the deposit lists total luciferase, z-score -0.155; total luciferase, % of control 78.8; inactive. Knock-down of ARV1 (ARV1 fatty acid homeostasis modulator) #3 resulted in: total luciferase, z-score 0.543; total luciferase, % of control 92.7; inactive.

Against SLC13A2 #1 the deposit lists total luciferase, z-score 0.723; total luciferase, % of control 96.3; inactive. With knock-down of SLC13A2 #2, the screen gave total luciferase, z-score 0.0302; total luciferase, % of control 82.5; inactive. With knock-down of SLC13A2 #3, the record shows total luciferase, z-score -0.11; total luciferase, % of control 79.7; inactive. Against OR52L1 (olfactory receptor family 52 subfamily L member 1) #1 the deposit lists total luciferase, z-score 0.29; total luciferase, % of control 87.7; inactive. OR52L1 (olfactory receptor family 52 subfamily L member 1) #2 showed total luciferase, z-score -0.389; total luciferase, % of control 74.2; inactive. After knock-down of OR52L1 (olfactory receptor family 52 subfamily L member 1) #3, the record shows total luciferase, z-score 2.59; total luciferase, % of control 133; inactive.

Silencing of PRR15L (proline rich 15 like) #1 gave: total luciferase, z-score 1.08; total luciferase, % of control 103; inactive. After knock-down of PRR15L (proline rich 15 like) #2 the results were total luciferase, z-score -0.137; total luciferase, % of control 79.2; inactive. With knock-down of PRR15L (proline rich 15 like) #3, the record shows total luciferase, z-score -0.401; total luciferase, % of control 73.9; inactive. With knock-down of CRY2 (cryptochrome circadian regulator 2) #1 the results were total luciferase, z-score -0.598; total luciferase, % of control 70; inactive. CRY2 (cryptochrome circadian regulator 2) #2 gave total luciferase, z-score -0.616; total luciferase, % of control 69.6; inactive. Silencing of CRY2 (cryptochrome circadian regulator 2) #3 resulted in: total luciferase, z-score 0.82; total luciferase, % of control 98.2; inactive.

Against KRT1 (keratin 1) #1, the values are total luciferase, z-score -0.0605; total luciferase, % of control 80.7; inactive. KRT1 (keratin 1) #2 gave total luciferase, z-score -0.841; total luciferase, % of control 65.2; inactive. KRT1 (keratin 1) #3 gave total luciferase, z-score -0.799; total luciferase, % of control 66; inactive. Against ASAP1 (ArfGAP with SH3 domain, ankyrin repeat and PH domain 1) #1, the entry reads total luciferase, z-score 2.01; total luciferase, % of control 122; inactive. ASAP1 (ArfGAP with SH3 domain, ankyrin repeat and PH domain 1) #2 scored total luciferase, z-score -0.182; total luciferase, % of control 78.3; inactive. With knock-down of ASAP1 (ArfGAP with SH3 domain, ankyrin repeat and PH domain 1) #3, the record shows total luciferase, z-score 0.49; total luciferase, % of control 91.6; inactive.

Called active, of those listed so far:
CALB2 (calbindin 2) #3 — total luciferase, z-score: 3.61; total luciferase, % of control: 154; activity call: active
